The exact form of at least one protein or probe is not confirmed. The comparison behind a weaker result is the experiment's own reference, which may not be listed here. At least one verdict was read from the data and is not stated in words by the source.
Target: GST-SH2 (c-Src SH2 domain) (human) (UniProt P12931)
Test: ELONA
Conditions: recombinant protein; label: digoxigenin; single-stranded DNA; letters put together from the description

| Sequence | binding result |
| --- | --- |
| GTTGCTCGTATTTAGGGCGGGGGGGCGGGGGAGGAGGTGGCGGGAGTATCCATTGTCTACACCAGTCTTCATCCGC [ApSH2.14R] | binds more weakly |
| GTTGCTCGTATTTAGGGCCAACGCAACCCGCAAACCCACCCACCCAACCCACCACCGCACACCAGTCTTCATCCGC [ApSH2.17R] | binds more weakly |

— paper PMC7865352
